{"source": "patent US11969483B2", "about": "“Porous nanocarriers for the monitoring and treatment of bladder cancer” (NANOMEDTRIX, LLC, priority 2019, dated 2024)", "origin": "cited, not measured here", "data": [{"smiles": "O=C([O-])CN(CCN(CC(=O)[O-])CC(=O)O)CCN(CC(=O)[O-])CC(=O)O.[Gd+3]", "note": "[Gd-DTPA]", "values": [{"measurement": "attenuation relative to Iohexol 300", "setting": "equivalent concentration", "value": "roughly ⅓"}, {"measurement": "attenuation compared with iodinated CT contrast agents", "setting": "tube voltage 120 kVp", "value": "comparable"}]}]}
